For at least one compound, name, drawing or mass did not settle the structure. Starred links: 1 amine or outer side, 2 acyl side, 3 side chain; linkers in the order of their positions; H or OH if unused. Positions of bridges follow the written chain, without caps; N, C: chain ends. Non-standard residues stand in square brackets, D forms with d. Residues, ends and D or L forms follow the SMILES beside them. *: point of attachment. X1 = CC[C@H](C)[C@@H](N[*:1])[C@@H](O)CC(=O)O[C@H](C(=O)[C@H](C)C(=O)[*:2])C(C)C; NMeY = CN[C@@H](Cc1ccc(O)cc1)C(=O)O; dNMeL = CN[C@H](CC(C)C)C(=O)O; Pyruvoyl = CC(=O)C(=O)*
Experiments:
[1] = Phase I clinical studies: MTD, DLT and RD per dosing regime; assay type: in vivo, human; conditions: 1-hour infusion for 5 consecutive days every 3 weeks
Source text: The Recommended Dose (RD) is the highest dose which can be safely administered to a patient producing tolerable, manageable and reversibly toxicity according to the Common Toxicity Criteria established by the National Cancer Institute, (USA) with no more than […] patients presenting any dose limiting toxicities (DLT). Guidelines for cancer therapy frequently call for administration of chemotherapeutic agents at the highest safe dose at which toxicity is manageable in order to achieve maximum efficacy (DeVita, V. T. Jr., Hellman, S. and Rosenberg, S. A., Cancer: Principles and Practice of Oncology, 3rd ed., 1989, Lipincott, Philadelphia).
DLTs for aplidine using this method of treatment were determined in clinical studies. These studies established a recommended dose level for differing kinds of dosing protocols.

[2] = Phase I study, 24 h continuous infusion every other week: toxicities; assay type: in vivo, human; conditions: Pat #27, medullary thyroid carcinoma, 6000 μg/m^2 weekly
Method: Definitions for patient toxicities are adopted from WHO Criteria and the responses determined following WHO Response Criteria.
A phase I and pharmacokinetic study of aplidine, given as a 24 h continuous infusion every other week in patients with solid tumours and non-Hodgkin lymphoma

Structure (SMILES): CC[C@H](C)[C@H]1NC(=O)[C@@H](NC(=O)[C@@H](CC(C)C)N(C)C(=O)[C@@H]2CCCN2C(=O)C(C)=O)[C@@H](C)OC(=O)[C@H](Cc2ccc(OC)cc2)N(C)C(=O)[C@@H]2CCCN2C(=O)[C@H](CC(C)C)NC(=O)[C@@H](C)C(=O)[C@H](C(C)C)OC(=O)C[C@@H]1O [aplidine] (Pyruvoyl-P[dNMeL]T[X1]LP[NMeY](Me); ester 3-C)
- maximum tolerated dose, MTD [1]: 1500 × 5
- recommended dose, RD [1]: 1350 × 5
- muscular pain grade (DLT) [2]: G2
- symptomatic CPK grade (DLT) [2]: G3

— US7507766B2, “Treatment of cancers” (Pharma Mar, S.A., priority 2000, dated 2009)
